Screening data, single-dose tests

By UniProt entry, the sequences of proteins in these tests, tags left out. Residues count along the entry.
UniProt Q8IDJ8, 1-583: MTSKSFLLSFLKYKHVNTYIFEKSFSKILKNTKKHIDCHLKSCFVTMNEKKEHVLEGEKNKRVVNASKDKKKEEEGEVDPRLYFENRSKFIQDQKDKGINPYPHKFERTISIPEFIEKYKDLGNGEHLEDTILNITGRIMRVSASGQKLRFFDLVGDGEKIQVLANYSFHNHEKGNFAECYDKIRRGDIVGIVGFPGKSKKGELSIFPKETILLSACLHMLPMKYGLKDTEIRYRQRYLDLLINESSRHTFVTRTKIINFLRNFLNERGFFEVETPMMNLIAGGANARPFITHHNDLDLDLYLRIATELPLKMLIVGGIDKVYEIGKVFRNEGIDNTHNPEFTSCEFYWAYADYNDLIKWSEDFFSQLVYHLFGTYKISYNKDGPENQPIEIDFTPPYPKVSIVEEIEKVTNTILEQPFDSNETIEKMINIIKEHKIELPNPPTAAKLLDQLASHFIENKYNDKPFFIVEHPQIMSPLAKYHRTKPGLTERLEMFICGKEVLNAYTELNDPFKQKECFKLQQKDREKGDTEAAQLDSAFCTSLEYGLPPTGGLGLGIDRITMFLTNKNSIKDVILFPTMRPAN
UniProt Q4DA54, 1-478: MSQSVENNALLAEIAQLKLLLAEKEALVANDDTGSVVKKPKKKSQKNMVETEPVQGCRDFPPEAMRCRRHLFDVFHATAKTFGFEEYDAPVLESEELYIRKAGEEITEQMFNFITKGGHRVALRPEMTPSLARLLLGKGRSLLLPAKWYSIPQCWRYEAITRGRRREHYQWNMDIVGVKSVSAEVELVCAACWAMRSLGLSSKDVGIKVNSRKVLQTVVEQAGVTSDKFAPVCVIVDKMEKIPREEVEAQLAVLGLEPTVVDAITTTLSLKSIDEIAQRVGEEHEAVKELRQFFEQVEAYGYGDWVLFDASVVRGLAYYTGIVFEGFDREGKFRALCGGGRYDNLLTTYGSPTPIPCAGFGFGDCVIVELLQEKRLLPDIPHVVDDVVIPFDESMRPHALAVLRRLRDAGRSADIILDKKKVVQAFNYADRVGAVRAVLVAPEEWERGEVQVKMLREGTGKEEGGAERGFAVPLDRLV
UniProt I6X8D2, whole entry: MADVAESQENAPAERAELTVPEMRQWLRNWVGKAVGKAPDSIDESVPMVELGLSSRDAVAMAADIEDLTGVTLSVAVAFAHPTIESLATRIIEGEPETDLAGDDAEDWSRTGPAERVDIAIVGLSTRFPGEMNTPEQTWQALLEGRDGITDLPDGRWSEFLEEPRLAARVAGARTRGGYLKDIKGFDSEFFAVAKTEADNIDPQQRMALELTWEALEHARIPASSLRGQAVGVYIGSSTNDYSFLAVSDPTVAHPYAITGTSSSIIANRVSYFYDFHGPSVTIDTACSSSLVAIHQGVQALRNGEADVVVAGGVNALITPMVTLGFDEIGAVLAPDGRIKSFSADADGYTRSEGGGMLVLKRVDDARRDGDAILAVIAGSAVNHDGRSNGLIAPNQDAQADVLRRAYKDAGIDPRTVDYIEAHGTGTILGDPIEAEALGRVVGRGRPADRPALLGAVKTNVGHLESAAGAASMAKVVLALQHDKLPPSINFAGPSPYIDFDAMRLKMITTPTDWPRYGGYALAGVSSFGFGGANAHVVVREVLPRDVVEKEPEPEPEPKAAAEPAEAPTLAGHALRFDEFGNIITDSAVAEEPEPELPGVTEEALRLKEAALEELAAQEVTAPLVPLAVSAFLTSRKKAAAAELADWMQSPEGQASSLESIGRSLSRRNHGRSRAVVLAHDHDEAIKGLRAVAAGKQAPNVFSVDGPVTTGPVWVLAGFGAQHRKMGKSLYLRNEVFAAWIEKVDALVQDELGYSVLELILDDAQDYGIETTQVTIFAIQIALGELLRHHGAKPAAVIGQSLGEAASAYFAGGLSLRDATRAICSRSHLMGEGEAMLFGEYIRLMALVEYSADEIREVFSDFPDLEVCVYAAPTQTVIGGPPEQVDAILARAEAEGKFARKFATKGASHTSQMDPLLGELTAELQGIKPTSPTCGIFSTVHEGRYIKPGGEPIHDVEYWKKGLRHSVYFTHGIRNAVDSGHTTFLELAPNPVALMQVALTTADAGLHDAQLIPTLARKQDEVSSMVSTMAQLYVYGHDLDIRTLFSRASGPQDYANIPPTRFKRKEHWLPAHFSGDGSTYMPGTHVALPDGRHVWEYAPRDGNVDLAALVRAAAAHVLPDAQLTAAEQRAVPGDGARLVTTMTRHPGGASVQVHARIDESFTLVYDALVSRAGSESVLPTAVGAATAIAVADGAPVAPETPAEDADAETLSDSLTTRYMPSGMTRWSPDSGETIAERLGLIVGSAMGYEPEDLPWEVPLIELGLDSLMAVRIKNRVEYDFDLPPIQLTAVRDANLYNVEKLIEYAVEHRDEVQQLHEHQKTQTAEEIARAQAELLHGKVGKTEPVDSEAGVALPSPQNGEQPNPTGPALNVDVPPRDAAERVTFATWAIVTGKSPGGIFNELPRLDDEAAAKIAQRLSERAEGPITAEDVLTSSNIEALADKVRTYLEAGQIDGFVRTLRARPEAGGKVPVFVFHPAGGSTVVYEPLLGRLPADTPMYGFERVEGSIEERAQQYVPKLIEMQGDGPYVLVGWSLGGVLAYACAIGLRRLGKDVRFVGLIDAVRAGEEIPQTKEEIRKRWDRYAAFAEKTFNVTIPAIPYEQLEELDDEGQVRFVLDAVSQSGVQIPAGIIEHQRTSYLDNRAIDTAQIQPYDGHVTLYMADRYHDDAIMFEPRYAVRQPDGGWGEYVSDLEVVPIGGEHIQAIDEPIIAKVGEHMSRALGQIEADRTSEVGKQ

A: 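Enzyme assay of the cytosolic lysyl-tRNA synthetase in 384-well plates, read by luminescence. Target: Lysine-tRNA ligase, Plasmodium falciparum 3D7 (UniProt Q8IDJ8). Compounds at 30 µM. Higher reads as stronger inhibition, judged from the few compounds that gave an IC50. Size under these conditions: about 69,000 compounds, about 49 of them at 50% or above in at least one test.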
B: 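Histidine-tRNA ligase, Trypanosoma cruzi CL Brener (UniProt Q4DA54). Enzyme assay of histidyl-tRNA synthetase; the read-out is not stated. Tested at 30 µM. Higher reads as stronger inhibition (inferred: compounds with an IC50 in retests scored well above the rest). Of about 69,000 compounds tested this way, about 31 (0.045%) reached 50% or more in at least one test.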
C: 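Polyketide synthase Pks13, Mycobacterium tuberculosis (UniProt I6X8D2). Enzyme assay of the thioesterase domain of polyketide synthase 13; the read-out is not stated. Tested at 30 µM. The record gives no direction; the compounds picked for IC50 retests had high values, so higher reads as stronger inhibition. About 67,000 compounds were tested under these conditions; 0.46% (about 300) showed 50% or more at least once.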

Results are given as percent effect. The controls that fix the scale are not given in the record; negative values are as filed. Compounds were drawn at random from those tested, without regard to their results. A dash means the value is not listed here; it may have been measured.

CC(C)n1nnnc1-c1ccc(NC(=O)CCC(F)(F)F)cc1F gave A: -4.476%; B: 3.627%; C: -11.57%. Cn1cc(CN2CCCC(c3nccnc3-c3cccc(F)c3)C2)cn1 (centres unmarked) read A: -2.914%; B: 9.398%. For CN1C(=O)C2(CC(=O)Nc3[nH]ncc32)c2cc(Cl)ccc21 (centres unmarked) the result was A: 5.122%; B: 1.22%; C: -9.335%. With COc1ccc(-c2nnc(SC(C)C(=O)NC3CCCC3)[nH]2)c(OC)c1 (centres unmarked) the screen gave A: 4.712%; B: 8.333%; C: -10.26%. CSc1ccc(C(=O)N2CC(=O)N(Cc3cccs3)CC(O)C2)cc1 (centres unmarked) gave A: 6.674%; B: 13.48%; C: 17.58%. Result for O=C(NCc1ccco1)[C@@]12CCO[C@@H]1CCN(c1ncccn1)C2 was A: 8.891%; B: 9.804%; C: -5.931%. Cc1nn(C)c(C)c1CN1CCCC(c2ccc(C(=O)O)cc2)C1 (centres unmarked) read A: 1.467%; B: 9.877%; C: 18.72%.

For O=C([C@H]1COC[C@H]2CN(c3ncc(F)cn3)C[C@H]21)N1CCOCC1 the result was A: -0.9701%; B: 6.135%; C: 0.05123%. O=C(Cc1cccs1)NCC1COCc2c(-c3ccoc3)nnn2C1 (centres unmarked) read A: 10.94%; B: -54.43%; C: -16.62%. CCc1ccc(NC(C(N)=O)c2ccc(F)cc2)cc1 (centres unmarked) read A: -1.148%; B: 2.212%; C: 1.655%. Result for O=C(Cc1ccc2c(c1)OCCO2)NCCc1nnc2n1CCC2 was A: -1.204%; B: 2.256%; C: -7.206%. COCCN1CCCC2(CCN(c3ccsc3)C2=O)C1 (centres unmarked) gave A: -0.5594%; B: 5.102%; C: -7.703%. O=C(c1cc(=O)n(-c2ccccc2)[nH]1)N1CCCC(c2ccn[nH]2)C1 (centres unmarked) gave A: -8.198%; B: 45.27%; C: 18.57%. With O=C(c1cncc2ccccc12)N1CCC[C@@H]1CO the screen gave A: -0.4959%; B: 3.152%; C: -8.988%.

With CC(C)(C)OCCN(Cc1cccc(O)c1)C1CCC(O)CC1 (centres unmarked) the screen gave A: 8.227%; B: 4.865%; C: -6.939%. With O=C(O)[C@H]1CCCN1CCOc1cccc(Cl)c1 the screen gave A: -3.255%; B: 5.806%; C: -9.11%. For CC(=O)Nc1ccc(-c2ccccc2NC(=O)CN)cc1 the result was A: -7.161%; B: -1.739%; C: -1.056%. For CSc1ccc(-n2nnc(C(=O)O)c2-c2ccccn2)cc1 the result was A: 3.346%; B: -2.924%; C: -24.76%. For Cc1ccc(-c2cc(C(=O)NCCN3CCCS3(=O)=O)[nH]n2)o1 the result was A: 3.536%; B: 3.529%; C: -9.792%. With Cc1nn(C)cc1C1CC(=O)Nc2c1cnn2C(C)C (centres unmarked) the screen gave A: 1.838%; B: -3.96%; C: 1.578%. With Cc1cnn(CC2CN(CCCc3nc4ccccc4o3)CCO2)c1 (centres unmarked) the screen gave A: 0.149%; B: 7.289%; C: -17.42%.

With CCCc1ccc(CN2CCN(C(=O)N(C)C)[C@@H]3CS(=O)(=O)C[C@@H]32)o1 the screen gave A: 9.414%; B: 2.521%; C: -20.73%. Result for O=C(O)c1cccc(C2CCCN(S(=O)(=O)N3CCOCC3)C2)c1 (centres unmarked) was A: 3.126%; B: 0%; C: -27.08%. Result for NC(=O)c1cnn2c1NCC(CNCCCc1ccccc1)C2 (centres unmarked) was A: -0.2842%; B: 5.325%; C: -16.96%. With COc1ncccc1-c1ncccc1NC(=O)C(C)C the screen gave A: 2.564%; B: 4%; C: -14.04%. Result for OC(CNCCn1cccn1)c1cccc(Br)c1 (centres unmarked) was A: 1.013%; B: 6.215%; C: -13.19%. Result for CCn1cc(S(=O)(=O)NC2(CN3CCOCC3)CCCCC2)c(C)n1 was A: 3.996%; B: 3.802%; C: 10.16%. COCC1CCN(CCCc2cn[nH]c2)CC1 gave A: -0.5635%; B: -1.053%; C: -14.05%.

For Cc1nn(-c2ncnc3[nH]cnc23)c2c1C(CC(C)C)CC(=O)N2 (centres unmarked) the result was A: 9.996%; B: 7.772%; C: -15.01%. COc1cc(C2Nc3cc(Cl)ccc3C3=NCCN32)ccc1O (centres unmarked) gave A: 1.818%; B: 1.498%; C: 12.43%. Result for CCOc1cc(=O)n2c(c1C(=O)OCc1cccc(C)c1)CCCC2 was A: 0%; B: -16.83%; C: -14.31%. With Cc1cc(C)n(CC2CCCCN2CCC(=O)Nc2cc(C)on2)n1 (centres unmarked) the screen gave A: 1.35%; B: 2.579%; C: -15.82%.

Repeated from the top, 2 entries:

| Compound | A | B | C |
|---|---|---|---|
| `CC(C)n1nnnc1-c1ccc(NC(=O)CCC(F)(F)F)cc1F` | -4.476% | 3.627% | -11.57% |
| `Cn1cc(CN2CCCC(c3nccnc3-c3cccc(F)c3)C2)cn1` (centres unmarked) | -2.914% | 9.398% | - |

Data taken from ChEMBL document CHEMBL3988442, “University of Dundee, Small-Polar-MMV Screening Library” (2021).